Values quoted from earlier work as cited in patent EP2228055A1, “Riluzole liquid emulsions” (ITALFARMACO S.p.A., priority 2009, dated 2010).

## Nc1nc2ccc(OC(F)(F)F)cc2s1 [Riluzole, 6-(trifluoromethoxy)benzothiazol-2-amine]
pH 1.2
  solubility: about 12 mg/mL
water
  solubility in water: about 0.3 mg/mL
